Results as given in publication doi:10.1101/2020.11.04.368498.
These are yes or no findings as the source states them, for the method shown. Some results given as binding are weak or reduced against the parent protein; the word gives no strength. Tags and fused reporters may be left off the sequences shown.

Protein sequences, listed by entry. Tags and fused reporters are not part of them.
UniProt Q07955: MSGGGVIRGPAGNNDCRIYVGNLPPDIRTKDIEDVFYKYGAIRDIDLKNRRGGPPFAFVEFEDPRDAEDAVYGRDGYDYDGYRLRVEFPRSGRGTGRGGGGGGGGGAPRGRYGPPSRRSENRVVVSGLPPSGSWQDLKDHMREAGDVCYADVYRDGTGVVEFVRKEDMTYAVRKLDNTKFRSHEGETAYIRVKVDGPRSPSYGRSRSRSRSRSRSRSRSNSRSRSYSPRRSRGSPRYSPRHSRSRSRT
UniProt P26599: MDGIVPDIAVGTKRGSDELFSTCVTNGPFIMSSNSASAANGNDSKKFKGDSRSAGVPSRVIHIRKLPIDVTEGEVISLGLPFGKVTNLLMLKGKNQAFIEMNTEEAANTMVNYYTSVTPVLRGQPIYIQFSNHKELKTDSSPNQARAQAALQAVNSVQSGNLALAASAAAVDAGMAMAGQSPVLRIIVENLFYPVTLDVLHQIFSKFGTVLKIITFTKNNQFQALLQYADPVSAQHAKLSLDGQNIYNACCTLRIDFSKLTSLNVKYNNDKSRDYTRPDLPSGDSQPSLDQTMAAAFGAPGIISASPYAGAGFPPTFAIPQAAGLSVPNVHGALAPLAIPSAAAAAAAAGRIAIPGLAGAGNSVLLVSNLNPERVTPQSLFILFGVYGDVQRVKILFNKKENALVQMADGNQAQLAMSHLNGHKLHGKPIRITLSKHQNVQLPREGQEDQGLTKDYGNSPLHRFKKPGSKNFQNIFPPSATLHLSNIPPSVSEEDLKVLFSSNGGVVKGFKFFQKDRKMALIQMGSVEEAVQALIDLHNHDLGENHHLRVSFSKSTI
UniProt O75494: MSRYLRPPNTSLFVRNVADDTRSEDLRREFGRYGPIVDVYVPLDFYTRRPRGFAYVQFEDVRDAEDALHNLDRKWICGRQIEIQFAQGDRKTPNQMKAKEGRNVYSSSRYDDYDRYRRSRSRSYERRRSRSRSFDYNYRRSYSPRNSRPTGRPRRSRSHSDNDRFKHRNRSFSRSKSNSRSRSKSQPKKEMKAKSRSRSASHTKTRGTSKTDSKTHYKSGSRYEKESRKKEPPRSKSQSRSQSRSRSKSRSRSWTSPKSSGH
UniProt Q9UKM9: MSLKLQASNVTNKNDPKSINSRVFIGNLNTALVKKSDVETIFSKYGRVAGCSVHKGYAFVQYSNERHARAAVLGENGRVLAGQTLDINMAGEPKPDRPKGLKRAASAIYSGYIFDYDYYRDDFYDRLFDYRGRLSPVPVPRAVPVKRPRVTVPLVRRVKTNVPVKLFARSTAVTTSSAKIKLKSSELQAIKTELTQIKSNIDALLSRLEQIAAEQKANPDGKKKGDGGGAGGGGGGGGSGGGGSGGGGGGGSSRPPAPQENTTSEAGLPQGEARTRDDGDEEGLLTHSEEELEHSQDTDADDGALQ
UniProt Q13242: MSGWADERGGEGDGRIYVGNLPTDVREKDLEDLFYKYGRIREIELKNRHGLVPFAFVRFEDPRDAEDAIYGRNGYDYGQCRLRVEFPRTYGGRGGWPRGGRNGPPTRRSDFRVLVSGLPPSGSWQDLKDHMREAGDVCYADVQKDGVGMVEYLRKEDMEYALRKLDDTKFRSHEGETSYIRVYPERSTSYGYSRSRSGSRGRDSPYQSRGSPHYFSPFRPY
UniProt Q8WXF0: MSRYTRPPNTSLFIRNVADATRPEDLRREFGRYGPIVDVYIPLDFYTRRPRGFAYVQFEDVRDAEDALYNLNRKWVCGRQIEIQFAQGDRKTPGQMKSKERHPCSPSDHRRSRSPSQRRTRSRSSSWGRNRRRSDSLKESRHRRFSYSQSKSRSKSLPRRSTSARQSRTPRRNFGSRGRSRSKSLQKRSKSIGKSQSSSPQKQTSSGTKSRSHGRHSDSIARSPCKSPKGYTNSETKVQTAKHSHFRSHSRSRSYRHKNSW

Legend:
Assay in all cases: pull-down
GST-tagged SRSF1 = GST-tagged SRSF1 (UniProt Q07955)
FLAG-tagged SRSF2 = target: T1, FLAG-tagged SRSF2 (UniProt Q01130)
T1 sequence: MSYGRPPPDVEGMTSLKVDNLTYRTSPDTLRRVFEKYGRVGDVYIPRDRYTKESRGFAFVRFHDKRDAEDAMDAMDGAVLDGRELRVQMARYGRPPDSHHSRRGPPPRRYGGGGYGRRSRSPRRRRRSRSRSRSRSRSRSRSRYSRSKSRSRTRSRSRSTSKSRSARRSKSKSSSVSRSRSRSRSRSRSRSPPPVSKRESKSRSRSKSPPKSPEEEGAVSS

GST-tagged PTBP1 = GST-tagged PTBP1 (UniProt P26599)
FLAG-tagged SRSF10 = FLAG-tagged SRSF10 (UniProt O75494)
RALY = RALY (UniProt Q9UKM9)
FLAG-tagged SRSF9 = FLAG-tagged SRSF9 (UniProt Q13242)
[1] = target: FLAG-tagged SRSF1, full-length (UniProt Q07955)
FLAG-tagged SRSF6 = target: T2, FLAG-tagged SRSF6 (UniProt Q13247)
T2 sequence: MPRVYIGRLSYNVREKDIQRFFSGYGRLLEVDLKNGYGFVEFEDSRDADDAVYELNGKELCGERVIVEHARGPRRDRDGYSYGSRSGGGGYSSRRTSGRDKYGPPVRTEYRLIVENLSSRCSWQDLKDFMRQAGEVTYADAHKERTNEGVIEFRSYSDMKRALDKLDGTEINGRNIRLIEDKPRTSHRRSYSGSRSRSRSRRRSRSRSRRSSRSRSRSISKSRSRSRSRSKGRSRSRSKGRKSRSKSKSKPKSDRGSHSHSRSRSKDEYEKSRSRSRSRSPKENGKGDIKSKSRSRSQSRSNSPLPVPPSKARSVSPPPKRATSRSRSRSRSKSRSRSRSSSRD

FLAG-tagged SRSF12 = FLAG-tagged SRSF12 (UniProt Q8WXF0)

Measured: binding

B1: HIS-tagged Aurora-A (enzyme, UniProt O14965 1-403)
chain: MDRSKENCISGPVKATAPVGGPKRVLVTQQFPCQNPLPVNSGQAQRVLCPSNSSQRIPLQAQKLVSSHKPVQNQKQKQLQATSVPHPVSRPLNNTQKSKQPLPSAPENNPEEELASKQKNEESKKRQWALEDFEIGRPLGKGKFGNVYLAREKQSKFILALKVLFKAQLEKAGVEHQLRREVEIQSHLRHPNILRLYGYFHDATRVYLILEYAPLGTVYRELQKLSKFDEQRTATYITELANALSYCHSKRVIHRDIKPENLLLGSAGELKIADFGWSVHAPSSRRTTLCGTLDYLPPEMIEGRMHDEKVDLWSLGVLCYEFLVGKPPFEANTYQETYKRISRVEFTFPDFVTEGARDLISRLLKHNPSQRPMLREVLEHPWITANSSKPSNCQNKESASKQS
binds: all assays above
